1 compound from ChEMBL document CHEMBL1121400, “Quantitative structure--activity correlations of rifamycins as inhibitors of viral RNA-directed DNA polymerase and mammalian alpha and beta DNA polymerases” (J Med Chem, 1980) can be followed below.

A short description of data set [1]: The logarithm of the reciprocal of the concentration which produces 50% inhibition of mammalian alpha DNA polymerase. In a few lines:
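Mammalian α or β DNA polymerase in 100 µL reaction: enzyme in 50% glycerol, 1 mM DTT, 0.5 M KCl, Tris-HCl pH 7.5; Me2SO compound; cocktail with MnCl2, NaF, [3H]dGTP, poly(2'-O-methylC)·d(pG)12-18 template. Compound added first, then enzyme, then cocktail; 45 min at 37 °C. Product radioactivity, background-corrected against Me2SO controls; 50% concentration from triplicate five-dose curves, 10^-3–10^-7 M, expressed as log(1/C).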

A short description of data set [2]: Partition coefficient (logP). To be noted: octanol/water.

As a reminder, the logP is a log measure of how a compound divides between an organic and an aqueous phase. Low readings indicate lower lipophilicity, high ones higher lipophilicity. Compound `COC1/C=C/OC2(C)Oc3c(C)c(O)c4c(O)c(c(/C=N/N5CCN(C)CC5)cc4c3C2=O)NC(=O)/C(C)=C\C=C\C(C)C(O)C(C)C(O)C(C)C(OC(C)=O)C1C` (configuration not stated) yielded a Log 1/C in data set [1] of 3.47. The compound also displayed a logP in data set [2] of 1.29.
